The text below walks through data of US20170129929A1 (REGENTS OF THE UNIVERSITY OF COLORADO A BODY CORPORATE, published 2017).

This data set deals with the molecule itself. Kind of data set: self-association (dimer); MALDI-TOF peak at 80663 m/z and non-reducing SDS-PAGE. How it is done:
FIGS. 5A-D are set of graphs showing certain physical characteristics of LEDGF₁₋₃₂₆. A) SEC-HPLC: LEDGF₁₋₃₂₆ was size separated on Agilent Bio-SEC column using 25 mM Tris-HCL buffer containing 1 mM CaCl₂, pH 7.0. LEDGF₁₋₃₂₆ was eluted primarily as single peak at 11.5 min with about 5% higher molecular weight species. B) MALDI-TOF: LEDGF₁₋₃₂₆ has a molecular weight of 40 kDa, and may exist as a dimer. C) DLS: LEDGF₁₋₃₂₆ size was analyzed in 25 mM phosphate buffer, pH 7.0 using Nano ZS. […] D) SDS-PAGE: LEDGF₁₋₃₂₆ was size separated on a 4-15% SDS-PAGE gel under reducing (beta-mercaptoethanol and boiling) and non-reducing (no beta-mercaptoethanol and no boiling) conditions. The non-reducing gel indicated the presence of dimers of LEDGF₁₋₃₂₆.
The purity of LEDGF₁₋₃₂₆ protein was determined by size exclusion chromatography (SEC-HPLC) (FIG. 5A). […] The molecular weight of LEDGF₁₋₃₂₆ was confirmed by matrix assisted laser desorption/ionization (MALDI-TOF). The major peak obtained in MALDI-TOF spectrum was at 40314.32 and 80663.19 m/z (mass to charge) ratio (FIG. 5B). […] To investigate the existence of the dimers, SDS-PAGE of LEDGF₁₋₃₂₆ was run under reducing and non-reducing conditions (FIG. 5D). […] Under reducing/denaturing conditions the dimers dissociated into monomers.

B1: LEDGF1-326 (amino acids 1-326 of lens epithelium derived growth factor), as expressed from pLEDGF1-326 (pET-28a(+)) in Example 1 (other)
chain: MTRDFKPGDLIFAKMKGYPHWPARVDEVPDGAVKPPTNKLPIFFFGTHETAFLGPKDIFPYSENKEKYGKPNKRKGFNEGLWEIDNNPKVKFSSQQAATKQSNASSDVEVEEKETSVSKEDTDHEEKASNEDVTKAVDITTPKAARRGRKRKAEKQVETEEAGVVTTATASVNLKVSPKRGRPAATEVKIPKPRGRPKMVKQPCPSESDIITEEDKSKKKGQEEKQPKKQPKKDEEGQKEEDKPRKEPDKKEGKKEVESKRKNLAKTGVTSTSDSEEEGDDQEGEKKRKGGRNFQTAHRRNMLKGQHEKEAADRKRKQEEQMETEQ
notes: Produced in E. coli BL21(DE3); not shown: N-terminal His-tag from the pET-28a(+) vector
B1: the binding result is “binds”.
